These are yes or no findings as the source states them, for the method shown. In cells and extracts the contact can be indirect. Some results given as binding are weak or reduced against the parent protein; the word gives no strength.
Legend:
HA-tagged TrkB [1] = molecular target: HA-tagged TrkB (UniProt P15209); assay: co-IP; HEK293 co-transfected with TrkB-HA and EndophilinA-GFP; cells stimulated with 100 ng/ml BDNF for 20 minutes; lysis in 10 mM Tris-HCl pH 7.5, 150 mM NaCl, 0.5 mM EDTA, 0.5% NP-40; HA antibody on ProteinA magnetic beads, 4 hours; Western blot
HA-tagged TrkB [2] = molecular target: HA-tagged TrkB (UniProt P15209); assay: condition: only cells without BDNF (0.1% BSA control); co-IP; HEK293 co-transfected with TrkB-HA and EndophilinA-GFP; cells without BDNF (0.1% BSA as a control for 20 minutes); lysis in 10 mM Tris-HCl pH 7.5, 150 mM NaCl, 0.5 mM EDTA, 0.5% NP-40; HA antibody on ProteinA magnetic beads, 4 hours; Western blot

The chains behind the UniProt entries cited, without tags or fusion partners. Residues count along the entry.
UniProt P15209, residues 32-821: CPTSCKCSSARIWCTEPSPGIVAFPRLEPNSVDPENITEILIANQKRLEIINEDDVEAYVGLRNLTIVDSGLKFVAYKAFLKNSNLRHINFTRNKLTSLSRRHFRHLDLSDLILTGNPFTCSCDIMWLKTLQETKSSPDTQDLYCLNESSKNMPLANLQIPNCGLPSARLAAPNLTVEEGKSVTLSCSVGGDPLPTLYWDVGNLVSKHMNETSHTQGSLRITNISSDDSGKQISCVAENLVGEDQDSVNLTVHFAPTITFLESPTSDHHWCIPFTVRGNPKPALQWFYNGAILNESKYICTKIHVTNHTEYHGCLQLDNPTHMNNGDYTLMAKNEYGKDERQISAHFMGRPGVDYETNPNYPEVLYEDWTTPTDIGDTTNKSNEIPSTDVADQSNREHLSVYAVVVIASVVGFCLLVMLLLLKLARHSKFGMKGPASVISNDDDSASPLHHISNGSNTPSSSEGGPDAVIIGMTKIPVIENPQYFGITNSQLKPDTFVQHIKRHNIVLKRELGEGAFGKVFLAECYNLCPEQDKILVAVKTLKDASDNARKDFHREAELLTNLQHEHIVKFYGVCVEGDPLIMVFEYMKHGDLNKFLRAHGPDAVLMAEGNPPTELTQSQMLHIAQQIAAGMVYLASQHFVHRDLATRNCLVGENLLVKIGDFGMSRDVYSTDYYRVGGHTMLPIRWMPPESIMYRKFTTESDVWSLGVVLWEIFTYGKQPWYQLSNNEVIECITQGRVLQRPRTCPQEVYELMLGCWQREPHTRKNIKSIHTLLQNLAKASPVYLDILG
UniProt Q62421: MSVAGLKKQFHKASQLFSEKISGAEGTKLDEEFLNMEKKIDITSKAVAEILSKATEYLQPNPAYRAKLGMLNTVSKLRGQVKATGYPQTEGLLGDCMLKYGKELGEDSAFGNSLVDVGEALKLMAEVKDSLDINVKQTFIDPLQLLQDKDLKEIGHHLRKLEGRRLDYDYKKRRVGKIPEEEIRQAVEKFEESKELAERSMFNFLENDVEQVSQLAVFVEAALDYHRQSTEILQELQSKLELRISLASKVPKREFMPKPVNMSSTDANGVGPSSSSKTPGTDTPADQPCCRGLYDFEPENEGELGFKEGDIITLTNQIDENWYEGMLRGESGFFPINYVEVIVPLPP

binding (HA-tagged TrkB [1]): binds | binding (HA-tagged TrkB [2]): no binding
Substance: GFP-tagged EndophilinA3 (from UniProt Q62421 1-347)

Source: publication PMC5438371
